Literature values as cited in patent publication US20060068015A1, “Solid dosage form comprising a fibrate and a statin” (priority 2003, published 2006).

plasma concentrations lower (Cmax and AUC) following evening compared with morning administration (evening vs morning): approximately 30% | food decreases the extent of drug absorption, as assessed by AUC (with food): ~9% | food decreases the rate of drug absorption, as assessed by Cmax (with food): approximately 25%
SMILES: CC(C)c1c(C(=O)Nc2ccccc2)c(-c2ccccc2)c(-c2ccc(F)cc2)n1CC[C@@H](O)C[C@@H](O)CC(=O)O [Atorvastatin]
